The target in this test is USP1-HA (UniProt O94782). Briefly: co-IP; Co-IP in 293T cells: USP1-HA with TBLR1-Flag (reciprocal, tag antibodies) or with RAC1, SMAD4, BMP4 or PPP2R1.

The chains behind the UniProt entries cited, without tags or fusion partners. Where a name states a change or a piece, a line headed by the entry shows the natural chain unless it says otherwise.
UniProt O94782: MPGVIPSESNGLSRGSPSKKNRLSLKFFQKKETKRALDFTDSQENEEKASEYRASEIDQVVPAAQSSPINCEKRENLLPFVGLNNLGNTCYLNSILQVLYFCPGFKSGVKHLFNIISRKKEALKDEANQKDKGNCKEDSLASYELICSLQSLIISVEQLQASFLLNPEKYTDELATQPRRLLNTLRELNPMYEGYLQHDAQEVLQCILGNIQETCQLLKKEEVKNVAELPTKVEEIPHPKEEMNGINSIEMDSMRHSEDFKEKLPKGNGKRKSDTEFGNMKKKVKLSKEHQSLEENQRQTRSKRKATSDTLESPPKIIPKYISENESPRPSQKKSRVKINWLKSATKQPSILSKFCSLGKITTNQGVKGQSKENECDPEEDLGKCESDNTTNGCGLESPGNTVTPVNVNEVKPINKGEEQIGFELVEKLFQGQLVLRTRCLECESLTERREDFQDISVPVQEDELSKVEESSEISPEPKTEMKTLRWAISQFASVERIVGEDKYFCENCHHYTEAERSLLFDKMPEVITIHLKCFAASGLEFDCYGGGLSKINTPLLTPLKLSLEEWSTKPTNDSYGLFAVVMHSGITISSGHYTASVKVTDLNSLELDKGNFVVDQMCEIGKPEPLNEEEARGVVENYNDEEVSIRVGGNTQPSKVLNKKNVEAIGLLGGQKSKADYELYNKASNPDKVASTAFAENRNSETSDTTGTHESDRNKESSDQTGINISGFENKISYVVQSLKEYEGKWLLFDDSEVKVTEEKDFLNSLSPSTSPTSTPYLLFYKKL
UniProt P12644: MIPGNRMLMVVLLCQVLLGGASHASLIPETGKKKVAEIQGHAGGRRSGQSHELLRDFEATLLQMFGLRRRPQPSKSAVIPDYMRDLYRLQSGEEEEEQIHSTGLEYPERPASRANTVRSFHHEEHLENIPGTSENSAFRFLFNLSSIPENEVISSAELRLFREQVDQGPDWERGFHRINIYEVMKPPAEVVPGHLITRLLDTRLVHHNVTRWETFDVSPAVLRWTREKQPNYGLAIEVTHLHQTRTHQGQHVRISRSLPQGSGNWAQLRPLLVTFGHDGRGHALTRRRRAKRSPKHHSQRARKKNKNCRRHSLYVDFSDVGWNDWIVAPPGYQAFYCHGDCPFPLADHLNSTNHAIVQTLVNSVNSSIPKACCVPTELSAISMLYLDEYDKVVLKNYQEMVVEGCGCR

These are yes or no findings as the source states them, for the method shown. Binding seen in cells or lysates may run through a third protein.

For BMP4 (from UniProt P12644), the binding result is “no binding”.
